From paper PMC9226014
These are yes or no findings as the source states them, for the method shown. In cells and extracts the contact can be indirect. A yes stands for co-enrichment or nearness to the bait. Other partners may have been found. For some of these results: No binding means not detected with the bait.

Sequences of proteins named here, by UniProt entry; tags and fusion partners are left off. A change or cut given only in a name is not applied to a line headed by its entry.
UniProt Q9Y572: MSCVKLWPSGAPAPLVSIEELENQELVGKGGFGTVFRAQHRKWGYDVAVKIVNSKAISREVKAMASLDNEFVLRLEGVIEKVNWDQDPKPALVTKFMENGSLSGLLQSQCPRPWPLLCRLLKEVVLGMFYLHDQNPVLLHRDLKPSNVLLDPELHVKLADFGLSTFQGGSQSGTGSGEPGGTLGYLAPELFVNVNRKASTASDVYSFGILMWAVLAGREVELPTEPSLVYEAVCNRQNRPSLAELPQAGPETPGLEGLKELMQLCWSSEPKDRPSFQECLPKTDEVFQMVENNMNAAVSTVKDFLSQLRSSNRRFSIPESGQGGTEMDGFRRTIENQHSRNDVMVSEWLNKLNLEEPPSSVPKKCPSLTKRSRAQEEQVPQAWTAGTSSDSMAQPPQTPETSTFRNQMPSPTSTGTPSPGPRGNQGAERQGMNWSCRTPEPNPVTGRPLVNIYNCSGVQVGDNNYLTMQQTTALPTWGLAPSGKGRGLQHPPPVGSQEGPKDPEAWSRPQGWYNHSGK
UniProt Q9Y6K9: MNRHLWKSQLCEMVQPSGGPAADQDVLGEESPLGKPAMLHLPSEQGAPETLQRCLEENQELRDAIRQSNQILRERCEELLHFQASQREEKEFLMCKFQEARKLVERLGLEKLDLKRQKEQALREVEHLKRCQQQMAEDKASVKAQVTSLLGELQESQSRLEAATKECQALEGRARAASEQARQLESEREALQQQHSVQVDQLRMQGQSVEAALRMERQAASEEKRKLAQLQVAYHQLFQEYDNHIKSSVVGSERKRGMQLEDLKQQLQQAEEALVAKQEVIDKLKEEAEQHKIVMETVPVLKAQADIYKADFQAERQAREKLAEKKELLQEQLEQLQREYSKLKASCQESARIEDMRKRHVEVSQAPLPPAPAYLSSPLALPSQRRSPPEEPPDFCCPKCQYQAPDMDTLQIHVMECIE
UniProt Q13546: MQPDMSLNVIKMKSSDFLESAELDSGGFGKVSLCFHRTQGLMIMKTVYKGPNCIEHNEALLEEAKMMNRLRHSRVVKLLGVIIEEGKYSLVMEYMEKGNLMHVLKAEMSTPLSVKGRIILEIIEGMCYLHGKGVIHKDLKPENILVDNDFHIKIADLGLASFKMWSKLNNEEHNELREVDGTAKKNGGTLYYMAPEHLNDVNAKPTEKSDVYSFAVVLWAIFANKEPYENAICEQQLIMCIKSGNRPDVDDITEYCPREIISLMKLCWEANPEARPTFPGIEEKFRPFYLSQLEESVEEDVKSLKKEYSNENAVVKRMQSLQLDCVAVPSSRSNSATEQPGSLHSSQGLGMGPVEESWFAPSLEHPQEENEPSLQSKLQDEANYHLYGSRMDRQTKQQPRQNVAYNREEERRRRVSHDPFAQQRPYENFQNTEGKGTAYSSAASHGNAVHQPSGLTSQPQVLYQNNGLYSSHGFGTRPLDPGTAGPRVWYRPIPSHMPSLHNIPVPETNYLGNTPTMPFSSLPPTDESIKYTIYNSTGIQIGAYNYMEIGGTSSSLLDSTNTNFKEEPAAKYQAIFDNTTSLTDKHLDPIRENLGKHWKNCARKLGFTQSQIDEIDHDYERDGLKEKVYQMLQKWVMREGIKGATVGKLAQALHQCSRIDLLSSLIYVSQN
UniProt Q13158: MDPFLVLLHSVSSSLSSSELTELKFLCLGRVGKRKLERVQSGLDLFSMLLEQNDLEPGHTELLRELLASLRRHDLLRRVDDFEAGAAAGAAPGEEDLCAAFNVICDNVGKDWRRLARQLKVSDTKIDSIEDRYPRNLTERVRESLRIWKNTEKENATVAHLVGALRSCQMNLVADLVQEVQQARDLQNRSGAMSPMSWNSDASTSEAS

What was measured:
[1] = target: kinase-inactive D142N mutant human RIPK3 with an N-terminal FLAG tag (human) (UniProt Q9Y572); experiment: affinity purification with mass spectrometry; FLAG-RIPK3 (wild type or D142N) precipitated on anti-FLAG M2 Affinity Gel from lysates of RIPK3-/- HT29 cells induced with 500 ng/mL doxycycline overnight, without or with TSI (TNF, Smac mimetic Compound A, IDN-6556) for 3 h; lysis buffer 50 mM Tris-HCl pH 7.4, 1% Triton X-100, 150 mM NaCl, 1 mM EDTA; 1 h at 4 C; eluted with FLAG peptide; five replicates
[2] = target: wild-type human RIPK3 with an N-terminal FLAG tag (human) (UniProt Q9Y572); experiment: as above
[3] = target: kinase-inactive D142N mutant human RIPK3 with an N-terminal FLAG tag (human) (UniProt Q9Y572); experiment: affinity purification with mass spectrometry; as a1, at steady state only: cells induced with doxycycline, not treated with TSI
[4] = target: wild-type human RIPK3 with an N-terminal FLAG tag (human) (UniProt Q9Y572); experiment: condition: only at steady state (doxycycline only, without TSI); affinity purification with mass spectrometry; as a1, at steady state only: cells induced with doxycycline, not treated with TSI
[5] = target: wild-type human RIPK3 with an N-terminal FLAG tag (human) (UniProt Q9Y572); experiment: affinity purification with mass spectrometry; FLAG-RIPK3 (wild type or D142N) precipitated on anti-FLAG M2 Affinity Gel from lysates of RIPK3-/- HT29 cells induced with 500 ng/mL doxycycline overnight, without or with TSI (TNF, Smac mimetic Compound A, IDN-6556) for 3 h; lysis buffer 50 mM Tris-HCl pH 7.4, 1% Triton X-100, 150 mM NaCl, 1 mM EDTA; 1 h at 4 C; eluted with FLAG peptide; five replicates; remark: listed apart in the source

Molecule | binding [1] | binding [2] | binding [3] | binding [4] | binding [5]
IKBKG (NEMO) (from UniProt Q9Y6K9 1-419) | binds | binds | – | – | –
receptor-interacting serine/threonine protein kinase 1 (RIPK1) (from UniProt Q13546 1-671) | binds | binds | binds | no binding | –
CEMIP (protein, UniProt Q8WUJ3 31-1361) TVAAGCPDQSPELQPWNPGHDQDHHVHIGQGKTLLLTSSATVYSIHISEGGKLVIKDHDEPIVLRTRHILIDNGGELHAGSALCPFQGNFTIILYGRADEGIQPDPYYGLKYIGVGKGGALELHGQKKLSWTFLNKTLHPGGMAEGGYFFERSWGHRGVIVHVIDPKSGTVIHSDRFDTYRSKKESERLVQYLNAVPDGRILSVAVNDEGSRNLDDMARKAMTKLGSKHFLHLGFRHPWSFLTVKGNPSSSVEDHIEYHGHRGSAAARVFKLFQTEHGEYFNVSLSSEWVQDVEWTEWFDHDKVSQTKGGEKISDLWKAHPGKICNRPIDIQATTMDGVNLSTEVVYKKGQDYRFACYDRGRACRSYRVRFLCGKPVRPKLTVTIDTNVNSTILNLEDNVQSWKPGDTLVIASTDYSMYQAEEFQVLPCRSCAPNQVKVAGKPMYLHIGEEIDGVDMRAEVGLLSRNIIVMGEMEDKCYPYRNHICNFFDFDTFGGHIKFALGFKAAHLEGTELKHMGQQLVGQYPIHFHLAGDVDERGGYDPPTYIRDLSIHHTFSRCVTVHGSNGLLIKDVVGYNSLGHCFFTEDGPEERNTFDHCLGLLVKSGTLLPSDRDSKMCKMITEDSYPGYIPKPRQDCNAVSTFWMANPNNNLINCAAAGSEETGFWFIFHHVPTGPSVGMYSPGYSEHIPLGKFYNNRAHSNYRAGMIIDNGVKTTEASAKDKRPFLSIISARYSPHQDADPLKPREPAIIRHFIAYKNQDHGAWLRGGDVWLDSCRFADNGIGLTLASGGTFPYDDGSKQEIKNSLFVGESGNVGTEMMDNRIWGPGGLDHSGRTLPIGQNFPIRGIQLYDGPINIQNCTFRKFVALEGRHTSALAFRLNNAWQSCPHNNVTGIAFEDVPITSRVFFGEPGPWFNQLDMDGDKTSVFHDVDGSVSEYPGSYLTKNDNWLVRHPDCINVPDWRGAICSGCYAQMYIQAYKTSNLRMKIIKNDFPSHPLYLEGALTRSTHYQQYQPVVTLQKGYTIHWDQTAPAELAIWLINFNKGDWIRVGLCYPRGTTFSILSDVHNRLLKQTSKTGVFVRTLQMDKVEQSYPGRSHYYWDEDSGLLFLKLKAQNEREKFAFCSMKGCERIKIKALIPKNAGVSDCTATAYPKFTERAVVDVPMPKKLFGSQLKTKDHFLEVKMESSKQHFFHLWNDFAYIEVDGKKYPSSEDGIQVVVIDGNQGRVVSHTSFRNSILQGIPWQLFNYVATIPDNSIVLMASKGRYVSRGPWTRVLEKLGADRGLKLKEQMAFVGFKGSFRPIWVTLDTEDHKAKIFQVVPIPVVKKKKL | – | – | – | – | binds

Other lines, results leading:

binding [1] | binding [2] | binding [3] | binding [4] | binding [5] | Molecule
binds | binds | – | – | – | FADD (from UniProt Q13158 1-208)
– | – | – | – | binds | ABCD3 (protein, UniProt P28288 1-659) MAAFSKYLTARNSSLAGAAFLLLCLLHKRRRALGLHGKKSGKPPLQNNEKEGKKERAVVDKVFFSRLIQILKIMVPRTFCKETGYLVLIAVMLVSRTYCDVWMIQNGTLIESGIIGRSRKDFKRYLLNFIAAMPLISLVNNFLKYGLNELKLCFRVRLTKYLYEEYLQAFTYYKMGNLDNRIANPDQLLTQDVEKFCNSVVDLYSNLSKPFLDIVLYIFKLTSAIGAQGPASMMAYLVVSGLFLTRLRRPIGKMTITEQKYEGEYRYVNSRLITNSEEIAFYNGNKREKQTVHSVFRKLVEHLHNFILFRFSMGFIDSIIAKYLATVVGYLVVSRPFLDLSHPRHLKSTHSELLEDYYQSGRMLLRMSQALGRIVLAGREMTRLAGFTARITELMQVLKDLNHGKYERTMVSQQEKGIEGVQVIPLIPGAGEIIIADNIIKFDHVPLATPNGDVLIRDLNFEVRSGANVLICGPNGCGKSSLFRVLGELWPLFGGRLTKPERGKLFYVPQRPYMTLGTLRDQVIYPDGREDQKRKGISDLVLKEYLDNVQLGHILEREGGWDSVQDWMDVLSGGEKQRMAMARLFYHKPQFAILDECTSAVSVDVEGYIYSHCRKVGITLFTVSHRKSLWKHHEYYLHMDGRGNYEFKQITEDTVEFGS
